The same purity stands for every peptide and may come from a single statement.
Assay: general procedure: Fmoc solid-phase peptide synthesis; Rink Amide MBHA (C-terminal amides); pre-loaded Wang or 2-chlorotrityl resin (C-terminal acids); HBTU/DIEA, Oxyma/DIC, or PyAOP/DIEA
Conditions: for cyclisation yield / isolated yield: TFA salt; for final HPLC purity: analytical RP-HPLC; for isolated yield: total yield, scale of the general procedure 0.1 mmol
[1] = cyclisation step, bicyclic, sequence written open

Substance: 7Ahp(2)-Pen(3)-N-T-7MeW-K(Ac)-Pen(3)-AEF-2Nal-THP-E(2)-N-3Pya-Sar-CONH2
- cyclisation yield [1]: 13%

Substance: Ac-[Pen]*-E**-T-[W(7-Me)]-[Lys(Ac)]-[Pen]*-Phe[4-(2-aminoethoxy)]**-[2-Nal]-[THP]-E-N-[3-Pal]-Sarc-NH2
- final HPLC purity (whole synthesis, Gemini C18, scale of the general procedure 0.1 mmol, acetate): >95%

Substance: ac-Pen(1:3)-Dap(2:3)-T-Trp 7Me-Lvs Ac-Pen(1:3)-Phe 4 2ae(3:3)-Nal-THP-Lys Ac—N—H-Sar-am-PEG4DA(x,2:1,3:2)
- final HPLC purity (cyclisation step, Gemini C18, TFA salt, bicyclic): >95%
- cyclisation yield (cyclisation step, for the step of 2nd cyclisation, bicyclic): 50%
- isolated yield (whole synthesis, bicyclic): 15%

Substance: 6Ahx(2)-Abu(1)-N-T-W-Q-C(1)-AEF-2Nal-THP-E(2)-N-3Pya-Sar-CONH2
- cyclisation yield (cyclisation step): 5%

Substance: ac-Pen(1:3)-E(2:3)-T-Trp 7Me-Lys Ac-Pen(1:3)-Phe 4 2ae(2:3)-Nal-THP-Lys Ac—N—H-Sar-am
- final HPLC purity (cyclisation step, Gemini C18, TFA salt, bicyclic, sequence written open): >95%
- cyclisation yield (cyclisation step, for the step of lactam bond formation, bicyclic, sequence written open): 50%
- isolated yield (whole synthesis, bicyclic, sequence written open): 15%

Substance: McCO-k(2)-Pen(3)-O-T-W-Q-Pen(3)-AEF-2Nal-THP-E(2)-N-bAla-CONH2
- cyclisation yield (cyclisation step): 49%

Substance: PEG2(2)-Pen(3)-N-T-7MeW-K(Ac)-Pen(3)-AEF-2Nal-THP-hE(2)-N-3Pya-Sar-CONH2
- cyclisation yield (cyclisation step): 14%

Substance: McCO-Glu-Pen-N-T-7MeW-K(Ac)-Pen-AEF-2Nal-THP—K(Ac)—N-3Pva-Sar-CONH2
- cyclisation yield [1]: 10%
